Some results were stated once for a whole list of compounds, not compound by compound.
Each molecule was assayed on LNCaP cells (assay: Pro- and/or anti-proliferative activity on LNCaP in medium depleted in steroids (WST-1)). Conditions: 144 h, 1 nM to 100,000 nM.
Format: cell-based
Method: 2. Antiproliferative Activity on LNCaP in a Medium Depleted in Steroids:
The pro- and/or anti-proliferative activity of the compounds of the present invention is determined on LNCaP in medium depleted in steroids.
The LNCaP (ATCC, 1740) line originates from a carcinoma of the prostate expressing the androgen receptor, it is hormone-dependent.
The maintenance of the LNCaP line is carried out under the usual conditions in RPMI, 10% of foetal calf serum, 2 mM of glutamine, 100 U/ml of penicillin, 0.1 mg/ml of streptomycin and 0.01M HEPES, 1 mM sodium pyruvate, 40% of D-glucose.
For the study under conditions without steroids, 24 hours before the seeding the culture medium of the cells is eliminated. The cells are washed with PBS, then incubated in the presence of RPMI medium without phenol red, 10% of foetal calf serum without steroids (treatment with carbon-dextran beforehand), 2 mM of glutamine, 100 U/ml of penicillin, 0.1 mg/ml of streptomycin and 0.01M HEPES, 1 mM of sodium pyruvate, 40% of D-glucose. • Seeding the plates:
The LNCaP line is seeded at 20,000 cells/well in 90 μl of RPMI medium with 10% foetal calf serum depleted in steroids in 96-well plates coated with poly-D-lysine (Biocoat, Costar). • Treatment of the cells: 24 h after seeding, the cells are treated with 10 μl/well of compound diluted in the culture medium. The concentrations used are the following: 1 nM/10/30/100/300/1000/3000/10,000/100,000 nM. The cells are incubated for 144 h at 37° C., 5% CO2. • Reading: After incubation for 6 days, 10 μL of cell proliferation reagent WST-1 (Roche ref 1644807) is added to each well. After incubation for 2 to 4 hours at 37° C., 5% CO2, the absorbance at 450 nm is measured by spectrophotometry (Envision, Perkin Elmer). • Results: The experiments are carried out in duplicate and the best compounds are tested twice. […] 3. Measurement of Protein Expression of the Androgen Receptor

| Compound | agonist effect on the LNCaP cultured in a medium depleted in steroids |
| --- | --- |
| CC1(C)C(=O)N(c2ccc(N)c(C(F)(F)F)c2)C(=O)N1CCCCCN1C(=O)N(c2ccc(N)c(C(F)(F)F)c2)C(=O)C1(C)C [Example 8, 1,1′-pentane-1,5-diylbis{3-[4-amino-3-(trifluoromethyl)phenyl]-5,5-dimethylimidazolidine-2,4-dione}] | do not have an agonist effect |
| CC(=O)Nc1ccc(N2C(=O)N(CCCCCN3C(=O)N(c4ccc(NC(C)=O)c(C(F)(F)F)c4)C(=O)C3(C)C)C(C)(C)C2=O)cc1C(F)(F)F [Example 9, N,N′-(pentane-1,5-diylbis{(4,4-dimethyl-2,5-dioxoimidazolidine-3,1-diyl)[2-(trifluoromethyl)-4,1-phenylene]})diacetamide] | do not have an agonist effect |
| CC1(C)C(=O)N(c2ccc([N+](=O)[O-])c(Cl)c2)C(=O)N1CCCCCN1C(=O)N(c2ccc([N+](=O)[O-])c(Cl)c2)C(=O)C1(C)C [Example 12, 1,1′-pentane-1,5-diylbis[3-(3-chloro-4-nitrophenyl)-5,5-dimethyl-imidazolidine-2,4-dione]] | do not have an agonist effect |
| CC1(C)C(=O)N(c2ccc([N+](=O)[O-])c(C(F)(F)F)c2)C(=O)N1C/C=C\CN1C(=O)N(c2ccc([N+](=O)[O-])c(C(F)(F)F)c2)C(=O)C1(C)C [Example 19, 1,1′-(2Z)-but-2-ene-1,4-diylbis{5,5-dimethyl-3-[4-nitro-3-(trifluoromethyl)phenyl]imidazolidine-2,4-dione}] | do not have an agonist effect |
| CC1(C)C(=O)N(c2ccc(C#N)c(C(F)(F)F)c2)C(=O)N1C[C@@H]1O[C@@H]1CN1C(=O)N(c2ccc(C#N)c(C(F)(F)F)c2)C(=O)C1(C)C [Example 22, 4,4′-{(2R,3S)-oxirane-2,3-diylbis[methanediyl(4,4-dimethyl-2,5-dioxoimidazolidine-3,1-diyl)]}bis[2-(trifluoromethyl)benzonitrile]] | do not have an agonist effect |

Source: patent publication US8624037B2, “Imidazolidine-2,4-dione derivatives and use thereof as a medicament” (Ipsen Pharma S.A.S., priority 2009, dated 2014)
